Experimental data reported in patent US5932772A, “Separation processes” (Union Carbide Chemicals & Plastics Technology Corporation, priority 1998, dated 1999).

Key:
[1] = Rhodium content of nonpolar and polar phases after hydroformylation and phase separation
[2] = Hydroformylation of olefin with rhodium-ligand catalyst (initial rate, N/I)
[3] = 3-methyl-2-oxazolidinone, 1-dodecene, 90° C
[4] = 3-methyl-2-oxazolidinone, 1-hexadecene, 90° C, after hexane
[5] = DMF, 1-tetradecene, 90° C, after hexane
[6] = DMSO, 1-tetradecene, 90° C, after hexane
[7] = acetonitrile, 1-dodecene, 90° C (Table F)
[8] = acetonitrile, 1-dodecene, 95° C, 10 psi hydrogen + 60 psi syn gas
[9] = acetonitrile, 1-dodecene, 100° C, 20 psi hydrogen + 40 psi syn gas
[10] = acetonitrile, 1-dodecene, 100° C, 80 psi 1:1 syn gas
[11] = acetonitrile, 1-hexadecene, 90° C
[12] = acetonitrile, 1-tetradecene, 90° C (Table F)
[13] = acetonitrile, 1-tetradecene, 90° C, after hexane
[14] = adiponitrile, 1-dodecene, 90° C, after hexane
[15] = epsilon caprolactone, 1-dodecene, 90° C
[16] = sulfolane, 1-hexadecene, 90° C, after hexane
[17] = 3-methyl-2-oxazolidinone, 1-hexadecene, 90° C
[18] = DMF, 1-tetradecene, 90° C, 5 psi pressure drop
[19] = acetonitrile, 1-tetradecene, 90° C (Table E)
[20] = adiponitrile, 1-dodecene, 90° C
[21] = adiponitrile, 1-dodecene, 90° C (Table G)
[22] = acetonitrile, 1-dodecene, 90° C, after hexane (Table E)
[23] = acetonitrile, 1-dodecene, 90° C (Table E)
[24] = DMSO, 1-decene, 90° C, after hexane
[25] = DMF, 1-tetradecene, 100° C, after hexane

SMILES: N#Cc1ccc(P(c2ccc(C#N)cc2)c2ccc(C#N)cc2)cc1 [Ligand A]
- Rhodium in the polar phase [1, 3]: 306 ppm
- Rh in product phase ([1]; 3-methyl-2-oxazolidinone, 1-dodecene, 90° C, ICP): 6,000 ppb
- Rh in nonpolar phase [1, 4]: 39 ppb
- Rh in the polar phase [1, 4]: 324 ppm
- Rh in non-polar phase after 3 extractions with acetonitrile ([1]; DMF, 1-dodecene, 90° C): 55 ppb
- Rhodium ([1]; DMF, 1-dodecene, 90° C): 390 ppm
- Rh in nonpolar phase [1, 5]: 241 ppb
- Rh in the polar phase [1, 5]: 385 ppm
- Rh in product phase ([1]; DMSO, 1-dodecene, 90° C, ICP): 7,000 ppb
- Rh in nonpolar phase [1, 6]: 86 ppb
- Rh in the polar phase [1, 6]: 341 ppm
- Rh in non-polar phase after 3 extractions with acetonitrile ([1]; acetonitrile, 1-decene, 90° C): 24 ppb
- Rh in non-polar phase after 3 extractions with acetonitrile [1, 7]: 287 ppb
- Rhodium [1, 7]: 311 ppm
- Rh in nonpolar phase [1, 8]: 164 ppb
- Rh in the polar phase [1, 8]: 321 ppm
- Rh in nonpolar phase [1, 9]: 277 ppb
- Rh in the polar phase [1, 9]: 347 ppm
- Rh in nonpolar phase [1, 10]: 359 ppb
- Rh in the polar phase [1, 10]: 344 ppm
- Rh in non-polar phase after 3 extractions with acetonitrile [1, 11]: 427 ppb
- Rhodium [1, 11]: 343 ppm
- Rh in non-polar phase after 3 extractions with acetonitrile [1, 12]: 158 ppb
- Rhodium [1, 12]: 324 ppm
- Rh in nonpolar phase [1, 13]: 404 ppb
- Rh in the polar phase [1, 13]: 214 ppm
- Rh in product phase ([1]; adiponitrile, 1-dodecene, 90° C, ICP (Table G)): 9,000 ppb
- Rh in nonpolar phase [1, 14]: 329 ppb
- Rh in the polar phase [1, 14]: 343 ppm
- Rh in non-polar phase after 3 extractions with acetonitrile [1, 15]: 114 ppb
- Rh in nonpolar phase [1, 16]: 494 ppb
- Rh in the polar phase [1, 16]: 355 ppm
- Initial Rate [2, 3]: 140 s
- N/I in the nonpolar phase [2, 3]: 7.7
- N/I in the polar phase [2, 3]: 7.1
- Initial Rate [2, 17]: 390 s
- N/I in the nonpolar phase [2, 17]: 8
- N/I in the polar phase [2, 17]: 19
- Initial Rate ([2]; DMF, 1-dodecene, 90° C): 48 s
- N/I ([2]; DMF, 1-dodecene, 90° C): 6.4
- N/I ([2]; DMF, 1-tetradecene, 90° C): 7.5
- Initial Rate [2, 18]: 39 s
- Initial Rate ([2]; DMSO, 1-dodecene, 90° C): 140 s
- N/I in the nonpolar phase ([2]; DMSO, 1-dodecene, 90° C): 7.9
- N/I in the polar phase ([2]; DMSO, 1-dodecene, 90° C): 7.3
- Initial Rate ([2]; DMSO, 1-tetradecene, 90° C): 270 s
- N/I in the polar phase ([2]; DMSO, 1-tetradecene, 90° C): 20
- N/I, first value of the pair (no nonpolar-phase mark) ([2]; DMSO, 1-tetradecene, 90° C): 8
- Initial Rate ([2]; acetonitrile, 1-decene, 90° C): 39 s
- N/I ([2]; acetonitrile, 1-decene, 90° C): 7.7
- Initial Rate [2, 7]: 51 s
- N/I [2, 7]: 7.5
- Initial Rate [2, 8]: 55 s
- N/I [2, 8]: 15
- Initial Rate [2, 9]: 120 s
- N/I [2, 9]: 14
- Initial Rate [2, 10]: 60 s
- N/I [2, 10]: 10
- Initial Rate [2, 11]: 77 s
- N/I [2, 11]: 7.8
- Initial Rate [2, 19]: 1600 s
- N/I [2, 19]: 8.6
- Initial Rate [2, 12]: 51 s
- N/I [2, 12]: 7.4
- Initial Rate [2, 20]: 950 s
- N/I in the nonpolar phase [2, 20]: 15
- N/I in the polar phase [2, 20]: 36
- Initial Rate [2, 21]: 260 s
- N/I in the nonpolar phase [2, 21]: 10.9
- N/I in the polar phase [2, 21]: 11.7
- Initial Rate [2, 15]: 51 s
- N/I [2, 15]: 6.6
- Initial Rate ([2]; sulfolane, 1-hexadecene, 90° C): 260 s
- N/I in the nonpolar phase ([2]; sulfolane, 1-hexadecene, 90° C): 14
- N/I in the polar phase ([2]; sulfolane, 1-hexadecene, 90° C): 11

SMILES: CC1(C)c2cccc(P(c3cccc(C#N)c3)c3cccc(C#N)c3)c2Oc2c(P(c3cccc(C#N)c3)c3cccc(C#N)c3)cccc21 [Ligand C]
- Rh in non-polar phase after 3 extractions with acetonitrile [1, 7]: 1,200 ppb
- Rhodium [1, 7]: 300 ppm
- Initial Rate [2, 7]: 320 s
- N/I [2, 7]: 48

SMILES: N#CCCP(CCC#N)CCC#N [Ligand F]
- Rh in nonpolar phase [1, 22]: 3,000 ppb
- Initial Rate [2, 23]: 24 s
- N/I [2, 23]: 3

SMILES: c1ccc(P(c2ccccc2)c2ccccc2)cc1 [TPP, triphenylphosphine, reference compound]
- Rh in nonpolar phase [1, 6]: 44,000 ppb
- Rh in the polar phase [1, 6]: 220 ppm
- Rh in nonpolar phase [1, 22]: 75,000 ppb
- Initial Rate ([2]; DMSO, 1-tetradecene, 90° C): 20 s
- N/I in the polar phase ([2]; DMSO, 1-tetradecene, 90° C): 7
- N/I, first value of the pair (no nonpolar-phase mark) ([2]; DMSO, 1-tetradecene, 90° C): 7
- Initial Rate [2, 23]: 14 s
- N/I [2, 23]: 5

SMILES: O=P(CP(c1ccccc1)c1ccccc1)(c1ccccc1)c1ccccc1 [Ligand E]
- Rh in nonpolar phase [1, 24]: 763 ppb
- Rh in the polar phase [1, 24]: 544 ppm
- Initial Rate ([2]; DMSO, 1-decene, 90° C): 33 s
- N/I in the nonpolar phase ([2]; DMSO, 1-decene, 90° C): 2.5
- N/I in the polar phase ([2]; DMSO, 1-decene, 90° C): 2.5

SMILES: c1ccc(P(c2ccccc2)C2CCCCC2)cc1 [CHDPP, cyclohexyldiphenylphosphine, reference compound]
- Rh in nonpolar phase [1, 5]: 79,000 ppb
- Rh in the polar phase [1, 5]: 226 ppm
- N/I ([2]; DMF, 1-tetradecene, 90° C): 3
- Initial Rate [2, 18]: 23 s

SMILES: N#Cc1cccc(P(c2cccc(C#N)c2)c2cccc(C#N)c2)c1 [Ligand B]
- Rh in nonpolar phase [1, 22]: 425 ppb
- Rh in the polar phase [1, 22]: 273 ppm
- Rh in nonpolar phase [1, 8]: 474 ppb
- Rh in the polar phase [1, 8]: 345 ppm
- Rh in nonpolar phase [1, 9]: 134 ppb
- Rh in the polar phase [1, 9]: 252 ppm
- Initial Rate [2, 23]: 30 s
- N/I [2, 23]: 8
- Initial Rate [2, 8]: 55 s
- N/I [2, 8]: 10.5
- Initial Rate [2, 9]: 95 s
- N/I [2, 9]: 8

SMILES: COc1cccc(P(c2cccc(OC)c2)c2cccc(OC)c2)c1 [Ligand H]
- Rh in nonpolar phase [1, 22]: 20,000 ppb
- Rh in the polar phase [1, 22]: 226 ppm
- Initial Rate [2, 23]: 20 s
- N/I [2, 23]: 5

SMILES: COc1ccc(P(c2ccc(OC)cc2)c2ccc(OC)cc2)cc1 [Ligand G]
- Rh in nonpolar phase [1, 22]: 6,000 ppb
- Rh in the polar phase [1, 22]: 236 ppm
- Initial Rate [2, 23]: 420 s
- N/I [2, 23]: 4.4

SMILES: O=P(CCP(c1ccccc1)c1ccccc1)(c1ccccc1)c1ccccc1 [Ligand D]
- Rh in nonpolar phase [1, 25]: 759 ppb
- Rh in the polar phase [1, 25]: 320 ppm
- Initial Rate ([2]; DMF, 1-tetradecene, 100° C): 45 s
- N/I ([2]; DMF, 1-tetradecene, 100° C): 5.5
